In patent US10260060B2, “Genetically modified phenylpyruvate decarboxylase, processes to prepare, and uses thereof” (Dow Global Technologies LLC, priority 2014, dated 2019):
Where a chain is given by its changes, count along the chain named. At least one structure is not confirmed: it was looked up by name or label, or the drawing left a doubt.

What was measured:
[1] = molecular target: T1, Azospirillum brasilense phenylpyruvate decarboxylase (AbPPDC) variant F532L, SEQ ID 30 (Azospirillum brasilense, UniProt P51852, F532L); test: HTP AbPPDC coupled enzyme assay (ADH6/NADPH), 2-ketoacid decarboxylation kinetics, F532L; format: biochemical; conditions: for h (Hill coefficient): pH 6.8, 30° C, Hill equation, mean ± standard error
T1 construct: made in house; host or cells: E. coli BL21(DE3)
T1 sequence (P51852 1-545 F532L): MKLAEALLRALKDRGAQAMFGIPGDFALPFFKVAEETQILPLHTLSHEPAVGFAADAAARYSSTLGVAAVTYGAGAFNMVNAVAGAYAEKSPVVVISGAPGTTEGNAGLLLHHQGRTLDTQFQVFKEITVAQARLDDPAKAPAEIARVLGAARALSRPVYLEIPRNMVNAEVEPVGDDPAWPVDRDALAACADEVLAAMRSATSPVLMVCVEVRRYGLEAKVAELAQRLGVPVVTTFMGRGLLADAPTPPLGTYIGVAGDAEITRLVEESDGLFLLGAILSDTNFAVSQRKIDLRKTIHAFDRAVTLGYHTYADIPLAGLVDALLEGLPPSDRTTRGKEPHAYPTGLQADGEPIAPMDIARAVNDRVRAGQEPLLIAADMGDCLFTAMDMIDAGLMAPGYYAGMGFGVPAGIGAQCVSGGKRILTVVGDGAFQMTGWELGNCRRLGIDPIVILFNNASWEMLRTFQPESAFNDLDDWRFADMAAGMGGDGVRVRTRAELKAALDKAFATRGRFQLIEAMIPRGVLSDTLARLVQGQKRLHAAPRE
Procedure: (§1) The evaluation of the AbPPDC variants is performed in two steps using the high-throughput enzyme assay described hereinbelow. Initially, all the variants are tested for activity against a single high concentration (2 mM) of 2-KH and 2-KN (as shown in Table 1). Following the initial evaluation, detailed kinetic analysis is performed on a select number of variants to determine the maximal rate (kcat), substrate concentration yielding half maximal rate (K0.5, equivalent of KM for enzymes following Michaelis-Menten kinetics), and the catalytic efficiency of the enzyme (kcat/K0.5) against 2-KO and 2-KN (as shown in Table 2). AbPPDC variants, having higher specificity (higher kcat/K0.5) for 2-KN, will be efficient in producing octanal and chemicals derived from it inside the cells.
(§2) To evaluate the substrate specificity of the wild type AbPPDC and its variants listed in Table 1, genes of all the proteins are expressed in E. coli cells separately and the protein products are isolated from the cells. […]
(§3) A high-throughput AbPPDC coupled enzyme assay is developed for evaluating the substrate specificity of AbPPDC variants. […] The initial velocities of the AbPPDC catalyzed reactions are determined from the rates of oxidation of reduced nicotinamide adenine dinucleotide phosphate (NADPH) occurring during the ADH6 catalyzed reduction of aldehyde.
(§4) The HTP screening assay involves incubating 2 mM 2-KH or 2 mM 2-KN with 0.5 mM thiamine diphosphate, 0.35 mM NADPH, 4.7 micrograms (μg) of yeast ADH6 (GenBank: Accession No. NP 014051.3) and 0.3 milligrams per milliliter (mg/mL) bovine serum albumin (BSA) in AbPPDC assay buffer (50 mM 3-(N-morpholino)propanesulfonic acid, pH 6.8, containing 2.5 mM magnesium chloride (MgCl2)) at 30° C. […] The plate containing the 200 μL of reaction mixture is centrifuged at 2500×g for 15 sec and the absorbance change of the reaction mixture followed spectrophotometrically at 340 nm on a BioTek™ plate reader, pre-equilibrated at 30° C. […]

[2] = molecular target: T2, Azospirillum brasilense phenylpyruvate decarboxylase (AbPPDC) variant Q536A, SEQ ID 34 (Azospirillum brasilense, UniProt P51852, Q536A); test: HTP AbPPDC coupled enzyme assay (ADH6/NADPH), 2-ketoacid decarboxylation kinetics, Q536A; format: biochemical; conditions: for h (Hill coefficient): pH 6.8, 30° C, Hill equation, mean ± standard error
T2 construct: made in house; host or cells: E. coli BL21(DE3)
T2 sequence (P51852 1-545 Q536A): T1 sequence (P51852 1-545 F532L) with L532F, Q536A
Procedure: as §1, §2, §3, §4

Question: How did the “Spec (specificity: ratio of kcat/K0.5 for 2-KN to that for 2-KO)” value ([1]; 2-KN over 2-KO) turn out when `CCCCCCCC(=O)C(=O)O` [2-KN, 2-ketononanoate] was run?
Answer: 4.3

Question: What about the “h (Hill coefficient)” value [1] of the same molecule?
Answer: 1.4 ± 0.3

Question: What about the “Spec (specificity: ratio of kcat/K0.5 for 2-KN to that for 2-KO)” value ([2]; 2-KN over 2-KO) of the same molecule?
Answer: 2.1

Question: What about the “h (Hill coefficient)” value [2] of the same molecule?
Answer: 1.6 ± 0.1

Question: For `CCCCCCC(=O)C(=O)O` [2-KO, 2-ketooctanoate], which “h (Hill coefficient)” value [1] is on record?
Answer: 2.5 ± 0.2

Question: And the “h (Hill coefficient)” value [2]?
Answer: 2.1 ± 0.1
